In US20120309051A1 (UNIVERSITY OF MEDICINE AND DENTISTRY OF NEW JERSEY, published 2012):
No constants are given. Whether binding was seen depends on the method and setting. Binding seen in cells or lysates may run through a third protein. Some entries that bind do so weakly or less than the wild type. For part of these data: Where a sequence is shown, tags or fusion partners need not be part of it.

T1: caveolin-3 (endogenous, mouse gastrocnemius skeletal muscle) (mouse) (UniProt P51637)
T1 sequence (looked up): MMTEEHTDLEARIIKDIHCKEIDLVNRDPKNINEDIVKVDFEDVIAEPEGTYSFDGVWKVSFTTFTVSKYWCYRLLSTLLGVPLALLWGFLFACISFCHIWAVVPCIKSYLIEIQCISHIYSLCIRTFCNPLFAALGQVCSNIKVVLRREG

T2: caveolin-3 (recombinant, expressed from pcDNA-Cav-3) (Homo sapiens (Human)) (UniProt P56539)
T2 sequence: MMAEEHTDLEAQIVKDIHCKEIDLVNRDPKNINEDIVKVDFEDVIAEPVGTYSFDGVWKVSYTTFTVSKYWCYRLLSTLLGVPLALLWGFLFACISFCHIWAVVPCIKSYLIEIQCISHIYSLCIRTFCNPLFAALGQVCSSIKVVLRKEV


Columns and labels:
[1] = molecular target: T1, caveolin-3 (endogenous, mouse gastrocnemius skeletal muscle) (mouse); assay: co-immunoprecipitation from whole cell lysate of mouse gastrocnemius skeletal muscle (anti-MG53 polyclonal, anti-caveolin-3 mAb)
[2] = molecular target: T2, caveolin-3 (recombinant, expressed from pcDNA-Cav-3) (Homo sapiens (Human)); assay: co-immunoprecipitation with anti-caveolin-3 mAb from lysate of co-transfected CHO cells

| binding [1] | binding [2] | Binder |
| --- | --- | --- |
| binds | – | mouse MG53 (mitsugumin53) (protein) MSAAPGLLRQELSCPLCLQLFDAPVTAECGHSFCRACLIRVAGEPAADGTVACPCCQAPTRPQALSTNLQLSRLVEGLAQVPQGHCEEHLDPLSIYCEQDRTLVCGVCASLGSHRGHRLLPAAEAQARLKTQLPQQKMQLQEACMRKEKTVAVLEHQLVEVEETVRQFRGAVGEQLGKMRMFLAALESSLDREAERVRGDAGVALRRELSSLNSYLEQLRQMEKVLEEVADKPQTEFLMKFCLVTSRLQKILSESPPPARLDIQLPVISDDFKFQVWKKMFRALMPALEELTFDPSSAHPSLVVSSSGRRVECSDQKAPPAGEDTRQFDKAVAVVAQQLLSQGEHYWEVEVGDKPRWALGVMAADASRRGRLHAVPSQGLWLLGLRDGKILEAHVEAKEPRALRTPERPPARIGLYLSFADGVLAFYDASNPDVLTPIFSFHERLPGPVYPIFDVCWHDKGKNAQPLLLVGPEQEQA |
| – | binds | GFP-MG53 (GFP fused to the amino-terminus of full-length mouse MG53) (protein, not shown: large carriers) MSAAPGLLRQELSCPLCLQLFDAPVTAECGHSFCRACLIRVAGEPAADGTVACPCCQAPTRPQALSTNLQLSRLVEGLAQVPQGHCEEHLDPLSIYCEQDRTLVCGVCASLGSHRGHRLLPAAEAQARLKTQLPQQKMQLQEACMRKEKTVAVLEHQLVEVEETVRQFRGAVGEQLGKMRMFLAALESSLDREAERVRGDAGVALRRELSSLNSYLEQLRQMEKVLEEVADKPQTEFLMKFCLVTSRLQKILSESPPPARLDIQLPVISDDFKFQVWKKMFRALMPALEELTFDPSSAHPSLVVSSSGRRVECSDQKAPPAGEDTRQFDKAVAVVAQQLLSQGEHYWEVEVGDKPRWALGVMAADASRRGRLHAVPSQGLWLLGLRDGKILEAHVEAKEPRALRTPERPPARIGLYLSFADGVLAFYDASNPDVLTPIFSFHERLPGPVYPIFDVCWHDKGKNAQPLLLVGPEQEQA |
| – | binds | GFP-TRIM (GFP fused to the amino-terminus of the TRIM portion of MG53, a.a. 1-287) (protein, not shown: large carriers) MSAAPGLLRQELSCPLCLQLFDAPVTAECGHSFCRACLIRVAGEPAADGTVACPCCQAPTRPQALSTNLQLSRLVEGLAQVPQGHCEEHLDPLSIYCEQDRTLVCGVCASLGSHRGHRLLPAAEAQARLKTQLPQQKMQLQEACMRKEKTVAVLEHQLVEVEETVRQFRGAVGEQLGKMRMFLAALESSLDREAERVRGDAGVALRRELSSLNSYLEQLRQMEKVLEEVADKPQTEFLMKFCLVTSRLQKILSESPPPARLDIQLPVISDDFKFQVWKKMFRALMPA |
